From PMC4947154
These are yes or no findings as the source states them, for the method shown. Some results given as binding are weak or reduced against the parent protein; the word gives no strength.

Protein sequences, listed by entry. Tags and fused reporters are not part of them. Residues count along the entry.
CD320 extracellular domain, residues 53-199 (crystallization construct) (Q9NPF0, residues 53-199): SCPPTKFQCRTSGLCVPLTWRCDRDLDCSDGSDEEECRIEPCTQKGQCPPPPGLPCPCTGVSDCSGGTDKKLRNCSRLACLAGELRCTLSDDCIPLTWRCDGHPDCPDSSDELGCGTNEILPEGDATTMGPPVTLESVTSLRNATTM
CD320 LDLR-A1 domain (residues 53-95) (Q9NPF0, residues 53-95): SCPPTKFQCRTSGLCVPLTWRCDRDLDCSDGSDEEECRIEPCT
CD320 LDLR-A2 domain (residues 125-199), in complex with TC (Q9NPF0, residues 125-199): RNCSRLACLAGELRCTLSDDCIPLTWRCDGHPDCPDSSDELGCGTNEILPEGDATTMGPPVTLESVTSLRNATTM

Legend:
[1] = target: CD320 LDLR-A2 domain (residues 125-199), in complex with TC (human) (UniProt Q9NPF0); test: SEC; purified complexes, 0.5-1 mg/ml in 20 mM Tris pH 7.5, 0.5 mM CaCl2, 150 mM NaCl, G3000SWxl column at 4 °C, after heating for 10 min at selected temperatures (thermostability; also with 10 mM EGTA without Ca2+); SEC profiles of purified complexes; both purified
[2] = target: CD320 LDLR-A2 domain (residues 125-199), in complex with TC (human) (UniProt Q9NPF0); test: co-expression and co-purification; TC construct and His9-MBP-CD320 construct co-expressed and secreted from Sf21 cells, complex captured from the medium on Ni-NTA through the receptor's tag
[3] = target: CD320 LDLR-A1 domain (residues 53-95) (human) (UniProt Q9NPF0); test: as above
[4] = target: CD320 extracellular domain, residues 53-199 (crystallization construct) (human) (UniProt Q9NPF0); test: crystal structure; co-crystals of the purified complex, sitting drop, 20 °C; both purified

B1: human transcobalamin (holo-TC, cyanocobalamin-bound) (protein, UniProt P20062 19-427)
chain: EMCEIPEMDSHLVEKLGQHLLPWMDRLSLEHLNPSIYVGLRLSSLQAGTKEDLYLHSLKLGYQQCLLGSAFSEDDGDCQGKPSMGQLALYLLALRANCEFVRGHKGDRLVSQLKWFLEDEKRAIGHDHKGHPHTSYYQYGLGILALCLHQKRVHDSVVDKLLYAVEPFHQGHHSVDTAAMAGLAFTCLKRSNFNPGRRQRITMAIRTVQEEILKAQTPEGHFGNVYSTPLALQFLMTSPMRGAELGTACLKARVALLASLQDGAFQNALMISQLLPVLNHKTYIDLIFPDCLAPRVMLEPAAETIPQTQEIISVTLQVLSLLPPYRQSISVLAGSTVEDVLKKAHELGGFTYETQASLSGPYLTSVMGKAAGEREFWQLLRDPNTPLLQGIADYRPKDGETIELRLVSW
B1 was tested, and the binding [1] was “binds”, the binding [2] was “binds” and the binding [3] was “binds weakly”. The binding [4] was “binds”.
